Reference: patent publication US10420747B2 (priority 2016, dated 2019)
For at least one compound, name, drawing or mass did not settle the structure.

Experiments:
LNCaP cells = test: SRB cell growth assay, androgen-starved cells with R1881; settings: 0.1 nM R1881, 96 hours, 10 μM BIC, 10 μM MDV, 0.1-0.4 μM AIL
c4-2b = test: as above; settings: androgen-starved c4-2b, 0.1 nM R1881, 96 hours; 10 μM BIC, 10 μM MDV, 0.1 μM AIL
LNCaP xenografts = test: Subcutaneous LNCaP xenograft model; format: in vivo, mouse; settings: 10 mg kg^−1 per day BIC or 2 mg kg^−1 per day AIL i.p., 49 days
22RV1 = test: SRB cell growth assay, androgen-starved cells with R1881; settings: androgen-starved 22RV1, 0.1 nM R1881, 96 hours; 10 μM BIC, 10 μM MDV, 0.1 μM AIL
22RV1 xenografts = test: Subcutaneous 22RV1 xenograft model; format: in vivo, mouse; settings: 10 mg kg^−1 per day BIC or 2 mg kg^−1 per day AIL i.p., 28 days
LNCaP-MDV3100-R cells = test: SRB cell growth assay, MDV3100-resistant cells; settings: 72 hours, 20 μM BIC, 20 μM MDV, 0.1 μM AIL

CC(O)(CS(=O)(=O)c1ccc(F)cc1)C(=O)Nc1ccc(C#N)c(C(F)(F)F)c1 (stereo not drawn) [BIC, Bicalutamide]
cell growth (SRB) (LNCaP cells): effectively blocked cell growth
cell growth (SRB) (c4-2b): could not significantly inhibit cell growth
tumor volume (LNCaP xenografts): significantly reduced the tumor volume
cell growth (SRB) (22RV1): could not significantly inhibit cell growth
tumor growth (22RV1 xenografts): resistant
cell growth (SRB) (LNCaP-MDV3100-R cells): totally resistant
